Assay results as given in patent US7989495B2, “Compositions and methods for inhibiting NF-κB mediated tumorigenicity and adhesion dependent survival of cancer cells” (University of Utah Research Foundation, priority 2002, dated 2011).
Some of these results come from one statement about several compounds together.

Columns and labels:
Test in all cases: LDH-based cell toxicity assay (CytoTox 96)
Conditions in all cases: one to ten μM, 24 hours
[1] = system: DLD-1 cells
[2] = system: HCT-116 cells
[3] = system: HT-29 cells

Measured: cell toxicity (LDH)

Cc1ccc(S(=O)(=O)/C=C/C#N)cc1 [BAY 11-7082, (2E)-3-(tolysulfonyl)-2-propenenitrile]
≤ 20%: all assays above

CC(C)(C)c1ccc(S(=O)(=O)/C=C/C#N)cc1 [BAY 11-7085, (2E)-3-[4-(tertiarybutylphenyl)sulfonyl]-2-propenenitrile]
≤ 20%: all assays above
